The test can be described thus: qHTS Assay for Lipid Storage Modulators in Drosophila S3 Cells.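 On cell number change: cells counted by Cell Tracker Red CMTPX staining in the red channel.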 Particulars: BODIPY lipid droplet fluorescence, 18-24 h; for cell number change: measured here: cell count max response, cells fed with added oleic acid. The method, boiled down: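 Drosophila S3 cells loaded with oleic acid (400 uM, as added) and compounds at several concentrations; lipid droplets imaged by 488-nm laser-scanning cytometry, 500–530 nm intensity and object ratio to cell channel. Percent activity normalized to 20 uM Triacsin C.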

[1] abbreviates: measured here: cell number channel AC50, cells fed with added oleic acid.
Where [2] appears, read: measured here: lipid fluorescence (Fed channel) AC50, cells fed with added oleic acid.

This is an account of results in PubChem BioAssay AID2685 (National Center for Advancing Translational Sciences (NCATS), 2010).

This is one part of the list. Shown are side measurements of this screen, not its main read-out; they come without a call. Most of these compounds were active or inconclusive in the main read-out, so they are no random draw. Words in brackets tell the shape of the fitted curve; partial curves, single points and poor fits give uncertain potencies.

With `Cc1sc2ncnc(N3CCC(C(=O)N(C)CC(=O)Nc4ccccc4Cl)CC3)c2c1C`, the cell number change is -27.6%.
For the compound `COCCN(C(=O)CNC(=O)c1ccco1)C(C(=O)NC1CCCC1)c1cccc(OC)c1` (stereo unspecified), the cell number change amounted to 8.73%.
Turning to `CN(c1ccc(O)cc1)c1nc(-c2cccnc2)cs1`, the cell number change was -35.9%. Also, the AC50 under setting [1] was 23.1 µM [falling, partial curve, poor fit]. Besides, the AC50 under setting [2] is 29.1 µM [rising, single point].
For the compound `Cc1ccc(OCC(=O)NNC(=S)NC(=O)c2cccs2)c(C)c1`, the cell number change is 4.53%. Besides, under setting [2], the half-maximal activity concentration (AC50) was 0.00461 µM [rising, full curve, poor fit].
As for `COc1ccc(-c2csc(/C(C#N)=C\c3ccc(OC)c([N+](=O)[O-])c3)n2)cc1`, the cell number change was found to be 2.51%. For the same compound, the concentration at half-maximal activity (AC50) under setting [2] is 18.4 µM [rising, single point].
As to `O=C(c1ccc(Cl)cc1)c1ccc(Oc2cc(NN3CCCCC3)c([N+](=O)[O-])cc2[N+](=O)[O-])cc1`, the cell number change is -6.29%. Besides, under setting [2], the AC50 is 0.58 µM [rising, single point].
As to `CSc1nc(N2CCN(Cc3ccc4c(c3)OCO4)CC2)c2ccccc2n1`, the cell number change was 5.43%.
As for `CN(C)S(=O)(=O)c1ccc(N2CCCC2)c(C(=O)NCC2CCCO2)c1` (stereo unspecified), the AC50 under setting [2] is 20.6 µM [falling, partial curve].
As for `CC1CCCC(C)N1NC(=O)c1cccc(S(=O)(=O)N2CCc3ccccc32)c1` (stereo unspecified), the cell number change was 75.5%. Under setting [1], the AC50 is 29.1 µM [rising, partial curve, poor fit].
On to `CN(C)S(=O)(=O)Nc1cccc(NC(=O)CC23CC4CC(CC(C4)C2)C3)c1`, for which the cell number change was -59.7%. Moreover, under setting [1], the AC50 is 11.6 µM [falling, partial curve]. In addition, the AC50 under setting [2] is 8.2 µM [falling, partial curve].
As to `COC(=O)c1ccc(Nc2nc3ccc(C)cc3n3cnnc23)cc1`, the cell number change came to 24.8%.
`O=C(N/N=C/c1ccc(F)cc1)c1cc[n+]([O-])cc1`: the cell number change was determined as 17.2%. Also, the concentration at half-maximal activity (AC50) under setting [2] is 4.11 µM [rising, full curve].
In the case of `C/C(CCc1ccccc1)=N\NC(=O)CC(=O)NCCc1ccccc1`, the cell number change came out at 13.7%. Besides, the AC50 under setting [2] is 18.4 µM [rising, single point].
With `O=C(COC(=O)c1c(F)cccc1F)Nc1ccccc1OC(F)F`, the cell number change is 7.66%.
On to `CN(Cc1ccccc1)C(=O)COC(=O)c1ccc(=O)n(Cc2ccccc2)n1`, for which the cell number change was -8.28%. In addition, under setting [1], the AC50 was 1.16 µM [falling, full curve].
As for `O=C(CSc1nnc(-c2ccco2)c(-c2ccco2)n1)c1ccccc1`, the cell number change came to 7.5%. Further, under setting [2], the AC50 was 0.00517 µM [falling, full curve, poor fit].
Take `COc1ccc(/C=C/C(=O)C2CC2)cc1Cn1nc(C)c([N+](=O)[O-])c1C`: the cell number change stood at 4.75%. Under setting [2], the AC50 is 0.411 µM [rising, full curve].
For the compound `Cc1ccc(C)c(NS(=O)(=O)c2cc(C(=O)Nc3cccc(N(C)S(C)(=O)=O)c3)ccc2C)c1`, the AC50 under setting [1] was 0.517 µM [rising, full curve] and the AC50 under setting [2] was 5.17 µM [rising, single point].
With `Nc1cc(C(=O)OCC(=O)NC(c2ccccc2)c2ccccc2)ccc1Cl`, the cell number change turned out to be 0.249%. The concentration at half-maximal activity (AC50) under setting [2] was 14.6 µM [rising, partial curve, poor fit].
With `O=C(CSc1nnc(-c2ccco2)n1-c1ccccc1Cl)Nc1cccc(C(=O)O)c1`, the cell number change was determined as 11.1%. In addition, the AC50 under setting [2] was 29.1 µM [rising, single point].
`Cc1cc(C)cc(N2CCN(C(=O)N3CCOCC3)CC2)c1`: the cell number change was -0.178%. In addition, under setting [2], the AC50 is 0.00517 µM [rising, full curve, poor fit].
On to `COc1ccc2c(c1)CC(C(=O)Nc1ccc(Cl)cc1)/C(=N/O)O2` (stereo unspecified), for which the cell number change came to 13.1%. Further, the AC50 under setting [2] is 0.00461 µM [rising, full curve, poor fit].
`CC(=O)c1ccc(N(C(=O)c2csnn2)C(C(=O)NC(C)(C)C)c2cccs2)cc1` (stereo unspecified): the cell number change was -2.72%. Under setting [2], the AC50 is 0.13 µM [falling, full curve, poor fit].
Take `CCC(CO)Oc1cc(NCc2ccccc2F)c2ncn(C(C)C)c2c1` (stereo unspecified): the cell number change stood at 2.76%. In addition, the AC50 under setting [1] was 6.51 µM [falling, single point]. The AC50 under setting [2] was 6.51 µM [falling, single point].
For the compound `COc1ccccc1CNC(=O)c1ccccc1NS(C)(=O)=O`, the cell number change was found to be 87.5%. In addition, the AC50 under setting [1] was 18.4 µM [rising, single point].
Take `COc1ccc(Cc2nnc(SCC(=O)NC3CCCCC3)n2C)cc1`: the cell number change is 6.17%. The AC50 under setting [2] is 25.9 µM [rising, single point].
Regarding `COc1cccc(CC2(CO)CCCN(Cc3[nH]c4ccc(C)cc4c3C)C2)c1` (stereo unspecified), the cell number change was -57.6%. Also, the half-maximal activity concentration (AC50) under setting [1] is 29.1 µM [falling, single point]. Further, the AC50 under setting [2] was 20.6 µM [falling, single point].
As for `c1ccc(CN2CCN(c3nc4ccccc4n4cnnc34)CC2)cc1`, the AC50 under setting [2] is 0.146 µM [rising, single point].
As to `Cc1ccc2[nH]c(=O)c3cc(C(=O)NCCC(C)C)sc3c2c1`, the cell number change worked out at 15.3%.
With `COc1ccc(S(=O)(=O)NCCC(=O)N2CCCC2)cc1N(C)S(C)(=O)=O`, the cell number change came out at 28.6%. Further, under setting [1], the half-maximal activity concentration (AC50) was 1.84 µM [rising, full curve, poor fit].
As for `OCCN(CCO)c1ccc(C(c2ccccc2Cl)c2ccc(N(CCO)CCO)cc2Cl)c(Cl)c1`, the cell number change is -50%. For the same compound, the AC50 under setting [1] was 18.4 µM [falling, single point]. Further, under setting [2], the AC50 is 18.4 µM [falling, single point].
Take `COc1ccc2c(c1OC)C(=O)N(c1ccc(F)cc1)C2`: under setting [2], the AC50 is 29.1 µM [rising, single point].
As for `O=c1c(Cl)c(NCc2ccc(F)cc2)cnn1C12CC3CC(CC(C3)C1)C2`, the cell number change was determined as 43.6%. The AC50 under setting [1] was 1.64 µM [rising, full curve, poor fit]. Besides, under setting [2], the AC50 was 0.731 µM [rising, partial curve, poor fit].
`COc1ccc(NS(=O)(=O)c2cc(NC(=O)C3CC3)ccc2N2CCOCC2)cc1`: the cell number change was 37.6%. In addition, the AC50 under setting [1] was 20.6 µM [rising, single point].
Regarding `O=C(CCCN1C(=O)c2ccccc2C1=O)Nc1sc2c(c1C(=O)NCc1ccco1)CCC2`, the cell number change is 13.8%. The AC50 under setting [1] was 0.461 µM [rising, full curve, poor fit]. Moreover, under setting [2], the AC50 was 1.84 µM [rising, full curve].
On to `COC(=O)/C=C1/S/C(=N/NC(=O)c2ccccc2)NC1=O`, for which the cell number change came out at 2.53%. Also, the AC50 under setting [2] is 23.1 µM [rising, single point].
Turning to `Cc1cccc(C)c1NC(=O)C1=C(O)c2sccc2N(C)S1(=O)=O`, the cell number change came out at 40.8%.
Regarding `O=C(N/N=C/c1cccc(O)c1)c1ccc(COc2ccc3c(c2)CCC3)o1`, the half-maximal activity concentration (AC50) was 0.731 µM [rising, full curve] under setting [1] and 2.31 µM [rising, partial curve] under setting [2].
As to `O=c1c2ccccc2cnn1-c1ccc(Br)cc1`, the cell number change was -31.2%. Under setting [1], the AC50 is 11.6 µM [falling, partial curve]. Further, the AC50 under setting [2] was 0.146 µM [falling, partial curve].
In the case of `Cn1nc(N)nc1N1CCN(c2ccc(F)cc2)CC1`, the cell number change was 19.5%.
In the case of `CS(=O)(=O)Nc1ccc(-c2ccc(/C=C3\SC(N)=NC3=O)o2)cc1`, the cell number change amounted to 8.68%. For the same compound, the AC50 under setting [2] was 29.1 µM [rising, single point].
As for `COc1ccc(NC(=O)c2sc3ncnc(N4CCN(c5ccccn5)CC4)c3c2C)cc1Cl`, the cell number change stood at 6.23%. Further, under setting [2], the AC50 was 11.6 µM [falling, single point].
In the case of `COc1ccc(Cl)cc1NC(=O)C/C(C)=N/NC(=O)COc1ccc(C)cc1`, the cell number change stood at 12.8%. Also, the AC50 under setting [2] is 29.1 µM [falling, single point].
Consider `Cc1csc(NC(=O)C2CCCC2)n1`, for which the cell number change came to 5.55%.
On to `CC(C)CCNC(=O)COC(=O)c1ccc(Br)o1`, for which the cell number change was -32.2%. Moreover, under setting [1], the AC50 was 29.1 µM [falling, single point].
For `CN(CC(=O)Nc1cccc(F)c1)C(=O)c1ccc(OCc2ccccc2)cc1`, the cell number change was -1.3%. The AC50 under setting [2] was 4.11 µM [falling, single point].
Consider `CC(CN1CCN(C)CC1)OC(=O)c1ccc(Cl)cc1Cl` (stereo unspecified), for which the cell number change was -35.7%. The AC50 under setting [1] was 2.06 µM [falling, full curve, poor fit].
In the case of `CCN(CC(=O)Nc1cccc(S(=O)(=O)N(C)c2ccccc2)c1)Cc1cccs1`, the cell number change is -10.6%. In addition, the AC50 under setting [2] was 0.326 µM [falling, full curve, poor fit].
In the case of `O=C(Cn1cnc2ccccc21)N/N=C/c1cccc([N+](=O)[O-])c1`, the cell number change was -7.64%. For the same compound, the AC50 under setting [1] is 0.651 µM [rising, partial curve, poor fit]. The AC50 under setting [2] was 0.651 µM [rising, partial curve, poor fit].
On to `O=C(CCCN1C(=O)/C(=C/c2cccs2)SC1=S)Nc1ccccc1O`, for which the cell number change was found to be 54.3%. Also, the AC50 under setting [1] was 23.1 µM [rising, single point]. The AC50 under setting [2] is 29.1 µM [falling, partial curve, poor fit].
`CC1Nc2ccccc2C(=O)N1NS(C)(=O)=O` (stereo unspecified): the cell number change was -40.8%.
Turning to `COc1ccc(OC)c(N/C(=N\c2nc(C)cc(C)n2)NC(=O)c2ccco2)c1`, the cell number change was 0.431%. Also, under setting [2], the AC50 was 6.51 µM [rising, single point].
For the compound `CC(=O)c1c(C)[nH]c(C(=O)N2CCN(c3cc(Cl)ccc3C)CC2)c1C`, the AC50 is 1.64 µM [rising, partial curve] under setting [1] and 2.31 µM [rising, full curve] under setting [2].
For `O=C(O)CSc1ncnc2c1sc1nc(-c3ccccc3)c3c(c12)CCC3`, the AC50 under setting [1] is 0.58 µM [rising, single point].
`COc1cc(/C=N/NC(=O)/C(=C\c2ccc3c(c2)OCO3)NC(=O)c2ccccc2)ccc1O`: the cell number change turned out to be 15.9%. Moreover, the AC50 under setting [2] was 29.1 µM [rising, single point].
As to `Cc1nnc(NC(=O)CSc2n[nH]c(-c3ccccc3)n2)s1`, the cell number change was found to be 13.3%. In addition, under setting [2], the AC50 is 0.92 µM [rising, full curve, poor fit].
For the compound `Nc1c(C(=O)NCCN2CCOCC2)c2nc3ccccc3nc2n1CCc1ccccc1F`, the cell number change was -35.2%. The AC50 under setting [1] was 32.6 µM [falling, single point].
`COCCN(C(=O)CCC(=O)Nc1cc(C)on1)C(C(=O)NC1CCCC1)c1ccccc1F` (stereo unspecified): the cell number change was 4.76%.
